Reference: publication PMC11415432

System: T1, MBP-PgWRKY74
T1 sequence (limits assumed): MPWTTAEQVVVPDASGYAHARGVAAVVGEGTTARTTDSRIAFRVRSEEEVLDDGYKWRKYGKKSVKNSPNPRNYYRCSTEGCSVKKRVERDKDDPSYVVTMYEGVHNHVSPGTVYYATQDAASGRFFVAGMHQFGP
Assay: EMSA
Conditions: shift attenuated by unlabeled self competitor; 4% glycerol, 60 mM KCl, 10 mM Tris-HCl pH 7.5, room temperature 20 min; 1% agarose gel in 1x TAE; recombinant protein; protein details: N-terminal MBP (pMAL-c5E); label: DIG-dUTP labeling by PCR

Sequence	binding result
CCTTTTCGTAATCCACGAACCAACTAGCTTGTAGCTTCTGCATTCAGTCAATTGCTCTTTGCTCAGCGACACGGAGTCAGCGTGCAGGATGAATCTCGTCCTATAAAGCGACGTGATTGCCAGTGCTCCTAAGTCTCGGGATCAATCGAACCTGTTATTATTACTATGGCATGATGCATCTGCAGTGGATTATGGTAGATCCTTCCTTCATTCAATAAGTCACTTGTTTTAGTCTCCTTCATCCTTTCCATAGTTGCTAAATTTAGTCCATACCTATTTGGTTCAAAAGATTCATAGGGACCACAACAAATGAGAGGGCATCTCTCTCCATTTAGTCCCAATAAGCAACCCTTTGGTGACTTGTTGGCTTATGAATTGAGACTAAATTTAATCCTCATTAAGTCACCATGTTTGGCACCAAAGTGACTTAATGGAACTTAATTTAGGTTGGCTAGAATAAGTAACCCCAATCCAAGCAGGGCCTGAGCTGCTGAGCATAA (double strand) [promoter probe 2 (Supplementary Table 3, second entry)]	binds
GGCACAGGTGCTGGCGTGCCCCCGTAGTCTCGGTTCGTAATACCACCCGGGACTAAAGGAGCCTTTAGTCCCGGTTGGTTCAAGCTGGACTAGGGGGGCTTTTGTCTCTAAACTTTAGTCCTGGTTGGACTTGAGAGACCTAAACCCCTTTCCAACCGGGACTAAAGCCCCTCTCCCTACCAGTGACAGGTGGGTTCTAGTGAATGAATAAGAGGAGTAGAGGATGGAAGTAGAGTGTACGCGTGCAGTAGGATGTTCTTTTTGAGGTATATTTAGAGGACATCTAACATATGTGTTGGATATAGATTTGGGTTATTACTTATTATTACTTGTCAGGCTGTCACCAGCCACCACTGATTCTTGAAACCAAATCCATCAGATTCCCAAGAGTGCCAAAGGGAATCTCTCCTTCTGCATCCCTCTATATAGTGCCGATCGAAACACAAAGCACATTGCCCTCAGTGTCCCATACGGAAAACCGGCCCCCATCGAGCGTGGAC (double strand)	binds
CAGAGCGGATCTGAGGGCATTTCGCAGCATTCAGGAGCGCTTTTGGGGATTTCTCAGCGCATCCTGTAGCATTTCTCAACGATTCGGTGAGCATTTCGTGCCTTTCTTTTCCCGGTCCCGTGGGTAATTACGTGTTGTTAAGTTACTCGTCGTTGAGGGTTTAATGTCCACTCTGTTGTGATTCAGGCTCGTCAAGTTCTTGATCGTTGGTTAAACATGTTTTCGAGTTCTAATTCCATGTTTAGAGAGGGATTAGGATTGTTTTGCAACCCTTCCAGATTGTTGTACATCTGAAAGTTCTCGCAGCTTTGTGGAAAAAGAATGGGCCTTTATTTCTCTGGGGAATGAATTCCTGTGGCATCTGATGCTCTAGGACCATAAAGAGCTCACTAAAGCTTGTAACTTTACTGCTGTCCTACCTCACTAAACTGCCCTATGGAATAATTCCTCAAGCTGTTTTCCTTTTCGTCATCTTTGGCGAAATAGGGGAAGAGCCTCTC (double strand)	binds
GCACTCGCTGACTTGGTGGACCCGCAGACACGCGGACCCCGCGTGTCATAGGGGTGCCCGGGTGGAGGCGTGGTGGGGGCGCGTCGGGCGCCCATGTGGGCGGACCACGTGGGGGTCCTCTCGCTCGCCTGTAGCCGGTAGCCGGTCGCCGCGGCGGGGCATTAAGTGGCTAATCATCGCCGCTTTCTTCCTCCACCACCGCCTCCCTCCTCCTAAATTCTCGAGGTTAAATAAGCGAGCTGGAGAAAGCAGTTCGGAGCCTAGTCTAGTGAGAAAGGGAGAGGAGGGAGGAAAGGGAAAGCGGCAGGGAGCAAAGAAGAAAGGTCAAGGCATCTGGGGTGCTTCTTCTTCTTCTCCTTCTTTCCGGAGATTCTTGGGACGAGGCGCCGCGGAAGGGAATTTCTCTGGCCTCCGCCGCCACAGCTTCC (double strand)	binds

Tags and fusion partners may be left off the protein sequences shown.
